Results from US20240196663A1, “DISPLAY APPARATUS, DISPLAY MODULE, AND ELECTRONIC DEVICE” (SEMICONDUCTOR ENERGY LABORATORY CO., LTD., priority 2022, published 2024).
For at least one compound, name, drawing or mass did not settle the structure.

Test: polarization term δp of the solubility parameter δ
Assay type: physicochemical

c1cc(-c2cccc(-c3cccc4c3sc3ccccc34)c2)cc(-c2cnc3c4ccccc4c4ccccc4c3n2)c1 [2mDBTBPDBq-II, 2-[3-(3′-dibenzothiophen-4-yl)biphenyl]dibenzo[f,h]quinoxaline]
polarization term δp of the solubility parameter δ: 3.2 MPa^0.5
